# PMC7819943, “Rice protein-binding microarrays: a tool to detect cis-acting elements near promoter regions in rice”
# The other results are listed elsewhere or left out.
# Biological target: T1, OsSMF1 (Oryza sativa, UniProt Q6ZLB0 1-436)
# T1 sequence: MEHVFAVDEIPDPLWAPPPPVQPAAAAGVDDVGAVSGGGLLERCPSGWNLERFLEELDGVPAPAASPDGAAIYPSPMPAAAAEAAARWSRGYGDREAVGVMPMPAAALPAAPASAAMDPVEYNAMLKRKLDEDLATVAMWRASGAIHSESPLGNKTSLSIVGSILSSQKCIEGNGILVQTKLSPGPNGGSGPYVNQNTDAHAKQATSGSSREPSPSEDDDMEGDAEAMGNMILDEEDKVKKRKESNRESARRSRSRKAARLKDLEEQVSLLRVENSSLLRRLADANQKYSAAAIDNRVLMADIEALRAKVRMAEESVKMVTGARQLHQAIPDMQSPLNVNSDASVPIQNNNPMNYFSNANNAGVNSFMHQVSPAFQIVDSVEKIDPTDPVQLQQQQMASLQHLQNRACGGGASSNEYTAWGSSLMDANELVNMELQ
# Test: protein-binding microarray (RPBM); PBS, 2% BSA, 51.3 ng/ul salmon testes DNA, 50 uM zinc acetate, 200 nM TF, 25 C, 1 h; high values mean tight binding
# Settings: protein: recombinant; tags: N-terminal polyhistidine and DsRed monomer fusion (pET32a); chain copies: 2; label: CyDye5-dUTP incorporated in the synthesized complementary strand; 3' TTTTT single-stranded linker to array surface; dsDNA, one strand shown
# How it was run: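 Using Ni–NTA, transcription factors fused N-terminally to polyhistidine and DsRed were purified after expression in E. coli BL21-CodonPlus. These were incubated at 200 nM with a blocked, double-stranded custom Agilent array for 1 h at 25 °C in a buffer containing 50 µM zinc acetate, and the array was washed. The binding signal is per-feature fluorescence intensity (arbitrary units) on an Axon 4000B scanner.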
row,Sequence,binding signal
1,CGAGATCTGCCACCGCCGTTCTTGTGCTCTTCTTGGTCTTCGGAGTCACCTAGTGCAG,3300 fluorescence intensity (a.u.)
2,GTGGTGCTACAGTAAATATTTGCTAATGATAGATTAATTACGGAGTCACCTAGTGCAG,7300 fluorescence intensity (a.u.)
3,CCATCTCTATTATGGTCATCCGGAATAAGGTTTTCATCTGCGGAGTCACCTAGTGCAG,22100 fluorescence intensity (a.u.)
4,GCTTCGGAGGAGCCAGAATACAAAAGTTTTATCACCACCACGGAGTCACCTAGTGCAG,3480 fluorescence intensity (a.u.)
5,AAGTCTATTTTGCTTTCTCAACTCTTGCTCTTGAGTGAATCGGAGTCACCTAGTGCAG,3860 fluorescence intensity (a.u.)
6,CCGGCCTCACCCACCTCGCCGTCACTCCCCTCGACCTCGTCGGAGTCACCTAGTGCAG,3470 fluorescence intensity (a.u.)
7,TCTTGCTACCAGTCACACCTCACTTACTGACGTAAACAGCCGGAGTCACCTAGTGCAG,3280 fluorescence intensity (a.u.)
8,GAGGAATCGAAGTTGGGCATGCGTGCGTGGAGATCCATGACGGAGTCACCTAGTGCAG,4140 fluorescence intensity (a.u.)
9,GGATCTTGAAGATGATGACAGACCCCGTGGACTGTTGCAGCGGAGTCACCTAGTGCAG,3920 fluorescence intensity (a.u.)
10,GAATTTGCTATAGTTAGGCAGCAACAGCAACGGCCACAGCCGGAGTCACCTAGTGCAG,19700 fluorescence intensity (a.u.)
11,TTATCTACTCAAGTGACTTGTACTTATCCTCGACTCTCTCCGGAGTCACCTAGTGCAG,3140 fluorescence intensity (a.u.)
12,CCGTGCGCATGAAGAGGACATTGGATGTTGAGTCACGGAACGGAGTCACCTAGTGCAG,5760 fluorescence intensity (a.u.)
13,GCTCGTGAGCAGCTCACGAGCCAGCTCGAGCTGACTCGTTCGGAGTCACCTAGTGCAG,3160 fluorescence intensity (a.u.)
14,GAGAAAAGATAAACTTATTTGTATCGCGTTGACACGGACGCGGAGTCACCTAGTGCAG,3450 fluorescence intensity (a.u.)
15,CGCTCCGCATTCGAGGACGTGTGGCGTGGCATTTGTGCGTCGGAGTCACCTAGTGCAG,8440 fluorescence intensity (a.u.)
16,GCTAAGCTCCATCCACGTCCACATTAATGTCAATTATACACGGAGTCACCTAGTGCAG,3710 fluorescence intensity (a.u.)
17,TCTATATGTGTACAAAATACTTCTTCCATTATATATATTGCGGAGTCACCTAGTGCAG,3210 fluorescence intensity (a.u.)
18,TTGTGCTATATCCCTAGCTCGAGTTGGCGTGTTAAACCACCGGAGTCACCTAGTGCAG,3820 fluorescence intensity (a.u.)
19,CGAATCAGTTTCGCCCACGTGGAATGGCCAGAGACGCCCGCGGAGTCACCTAGTGCAG,5290 fluorescence intensity (a.u.)
20,GCAGCCGGCCATCGTCGTTGTCGTCGCGGGCTTGACGTGGCGGAGTCACCTAGTGCAG,10700 fluorescence intensity (a.u.)
21,AACCACACACACAAATCCAGCGCAGCAACAGATCTATTGACGGAGTCACCTAGTGCAG,3900 fluorescence intensity (a.u.)

row,Sequence,binding signal
1,TGATATGATGGAGCTGACGCATCAGTTTCAGAAACTGTTGCGGAGTCACCTAGTGCAG,10600 fluorescence intensity (a.u.)
2,TTGTCCGACTAGAACTCTACCGATTCTAGTTGCAGCCGATCGGAGTCACCTAGTGCAG,4090 fluorescence intensity (a.u.)
3,ATCATCTATGCACCCAAATTCAATATTTAAATGTCCATTCCGGAGTCACCTAGTGCAG,20800 fluorescence intensity (a.u.)
4,AAACGCCAACGCCATACTCCACCTGACCTCACACTCGCACCGGAGTCACCTAGTGCAG,3290 fluorescence intensity (a.u.)
5,TCTACCTTCAAAAGGTGGGTATGTACGTGTCCTGGTCACTCGGAGTCACCTAGTGCAG,4320 fluorescence intensity (a.u.)
6,ACTGAGAGTCTGAAAACCAACCAGCAAATCAAGCTTTGTGCGGAGTCACCTAGTGCAG,3680 fluorescence intensity (a.u.)
7,AATCTCAGCCGCTTGAAGAGGGAGAGAGAGAGATGGGAAGCGGAGTCACCTAGTGCAG,31000 fluorescence intensity (a.u.)
8,TAGCCTGTTACATCATCAGAACATGCATGCAAGGCACTTCCGGAGTCACCTAGTGCAG,3480 fluorescence intensity (a.u.)
9,TGAACAAGTTTTACCACTTGCTTTCCTGTGTTTAATGCCACGGAGTCACCTAGTGCAG,3300 fluorescence intensity (a.u.)
10,AACACCTCCCGGTCATGCACCCTGCGTGGACTAACCACCCCGGAGTCACCTAGTGCAG,4250 fluorescence intensity (a.u.)
11,ACAAGCTAACACACACATGAACACAAAATCTGACGGAACCCGGAGTCACCTAGTGCAG,3500 fluorescence intensity (a.u.)
12,TGAATACGTCCAGATTCATTAGATGAGGTAATATCTCATTCGGAGTCACCTAGTGCAG,3290 fluorescence intensity (a.u.)
13,TTCTGATATAATCTGACTTGTACAAAGCAAATCGCCAATTCGGAGTCACCTAGTGCAG,4240 fluorescence intensity (a.u.)
14,CATGGGTCGGGCCTTTTGGCCAACTATAGCGCCAGCTCACCGGAGTCACCTAGTGCAG,4960 fluorescence intensity (a.u.)
15,TCTTCTTGTAGAGGGCTATGAATGATCCTGACTTTTATCTCGGAGTCACCTAGTGCAG,3360 fluorescence intensity (a.u.)
16,TTCTCCTCGGCCTCCATGTGCACGTCCATGTGGCGCATGGCGGAGTCACCTAGTGCAG,4220 fluorescence intensity (a.u.)
17,AGGCACATAAACTTGTTTGATTGTTGTGCAAAAGACTTGACGGAGTCACCTAGTGCAG,37000 fluorescence intensity (a.u.)
18,TCCATGCCACCGTCGCCGTCGTTTGCGCGAAAGCCCCTGCCGGAGTCACCTAGTGCAG,3180 fluorescence intensity (a.u.)
19,GCCGCCACGACACCCTTGTCCTCCTGCTCCGTAGCAGCCTCGGAGTCACCTAGTGCAG,5410 fluorescence intensity (a.u.)
20,CGTTGTGAGTCAAACTTTTATCAGATCATGTGTTACACCACGGAGTCACCTAGTGCAG,7280 fluorescence intensity (a.u.)
21,GTTCCATTCCAATCCCATGAAAGCAACAGCGCTGCCTATCCGGAGTCACCTAGTGCAG,35800 fluorescence intensity (a.u.)

# A portion of the results above:
row,Sequence,binding signal
10,GAATTTGCTATAGTTAGGCAGCAACAGCAACGGCCACAGCCGGAGTCACCTAGTGCAG,19700 fluorescence intensity (a.u.)
11,TTATCTACTCAAGTGACTTGTACTTATCCTCGACTCTCTCCGGAGTCACCTAGTGCAG,3140 fluorescence intensity (a.u.)
12,CCGTGCGCATGAAGAGGACATTGGATGTTGAGTCACGGAACGGAGTCACCTAGTGCAG,5760 fluorescence intensity (a.u.)
